Results are given in words; binding and its absence hold for the method and conditions named. Binding seen in cells or lysates may run through a third protein. Here binding means that the protein was enriched with, or labelled near, the bait; the list need not be complete.
Biological target: Insulin-like growth factor 2 mRNA-binding protein 3 (IGF2BP3), endogenous in mouse round spermatids (mouse (endogenous in round spermatids)) (UniProt Q9CPN8)
Assay: affinity purification with mass spectrometry; round spermatids of adult mouse testes lysed in IP lysis buffer; IgG or IGF2BP3 antibody-conjugated beads, 4 °C overnight; tryptic digest, LTQ Orbitrap Velos

Sequences of proteins named here, by UniProt entry; tags and fusion partners are left off.
UniProt Q9CPN8: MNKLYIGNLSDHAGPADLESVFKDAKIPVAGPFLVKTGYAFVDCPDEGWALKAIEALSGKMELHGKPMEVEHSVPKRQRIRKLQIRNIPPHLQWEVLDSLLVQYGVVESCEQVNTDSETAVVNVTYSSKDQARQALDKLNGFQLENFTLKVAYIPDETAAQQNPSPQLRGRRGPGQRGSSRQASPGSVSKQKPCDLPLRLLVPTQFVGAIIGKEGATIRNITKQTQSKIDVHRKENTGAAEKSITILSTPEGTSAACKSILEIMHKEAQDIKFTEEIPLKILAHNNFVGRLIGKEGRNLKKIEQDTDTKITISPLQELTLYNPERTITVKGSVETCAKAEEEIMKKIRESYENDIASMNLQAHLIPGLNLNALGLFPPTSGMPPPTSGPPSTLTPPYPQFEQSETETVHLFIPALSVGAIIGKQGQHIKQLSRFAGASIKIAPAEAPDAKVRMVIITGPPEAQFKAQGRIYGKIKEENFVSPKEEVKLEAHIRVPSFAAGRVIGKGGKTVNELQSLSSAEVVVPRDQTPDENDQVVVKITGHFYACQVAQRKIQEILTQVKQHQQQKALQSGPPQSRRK
UniProt Q9Z2C8: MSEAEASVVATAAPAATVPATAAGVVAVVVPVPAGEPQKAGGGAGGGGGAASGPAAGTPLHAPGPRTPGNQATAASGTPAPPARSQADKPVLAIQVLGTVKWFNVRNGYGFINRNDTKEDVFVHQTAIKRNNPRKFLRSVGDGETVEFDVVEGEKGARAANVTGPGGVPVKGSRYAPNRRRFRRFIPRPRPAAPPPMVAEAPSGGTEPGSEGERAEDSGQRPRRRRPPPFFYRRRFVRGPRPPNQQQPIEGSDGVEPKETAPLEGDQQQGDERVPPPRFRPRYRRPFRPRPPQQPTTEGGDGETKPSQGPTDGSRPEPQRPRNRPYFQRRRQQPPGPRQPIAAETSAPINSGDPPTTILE

binding: binds
Substance: YBX2, endogenous in mouse round spermatids (from UniProt Q9Z2C8 1-360)

From publication PMC12811620
